Test results as given in publication PMC8315052.
No constants are given. Whether binding was seen depends on the method and setting. In cells and extracts the contact can be indirect. Here binding means that the protein was enriched with, or labelled near, the bait; the list need not be complete.

Chains of the proteins cited; added tags and fusions are not shown.
UniProt P06733: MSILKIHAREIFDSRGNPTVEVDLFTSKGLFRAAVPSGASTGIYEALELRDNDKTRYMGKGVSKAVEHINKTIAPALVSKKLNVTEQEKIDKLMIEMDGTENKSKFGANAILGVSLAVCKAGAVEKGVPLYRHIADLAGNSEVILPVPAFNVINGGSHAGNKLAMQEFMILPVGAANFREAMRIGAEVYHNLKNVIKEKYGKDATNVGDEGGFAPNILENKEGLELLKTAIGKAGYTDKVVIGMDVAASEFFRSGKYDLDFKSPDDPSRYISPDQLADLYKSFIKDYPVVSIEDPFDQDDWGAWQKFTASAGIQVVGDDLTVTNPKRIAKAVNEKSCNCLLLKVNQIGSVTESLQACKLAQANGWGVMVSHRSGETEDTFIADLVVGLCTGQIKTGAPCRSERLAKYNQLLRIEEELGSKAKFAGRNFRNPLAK

Target: T1, coiled-coil domain containing 65 (CCDC65), endogenous (human (endogenous in AGS / gastric cancer cells)) (UniProt Q8IXS2)
T1 sequence: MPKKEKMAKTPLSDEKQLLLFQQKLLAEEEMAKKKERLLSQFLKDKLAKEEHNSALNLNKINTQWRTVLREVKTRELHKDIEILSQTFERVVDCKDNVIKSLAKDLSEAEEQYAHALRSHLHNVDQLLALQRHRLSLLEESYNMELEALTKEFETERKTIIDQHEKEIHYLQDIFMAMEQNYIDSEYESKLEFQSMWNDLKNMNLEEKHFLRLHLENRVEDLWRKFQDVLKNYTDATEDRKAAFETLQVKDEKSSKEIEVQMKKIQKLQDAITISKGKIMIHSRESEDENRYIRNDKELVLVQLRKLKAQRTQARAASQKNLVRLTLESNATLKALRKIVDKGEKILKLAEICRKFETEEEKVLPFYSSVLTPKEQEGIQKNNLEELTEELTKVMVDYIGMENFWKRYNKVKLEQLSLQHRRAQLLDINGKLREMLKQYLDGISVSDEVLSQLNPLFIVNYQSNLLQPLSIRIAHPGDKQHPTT
Test: affinity purification with mass spectrometry; Co-IP of CCDC65 from AGS cells (Pierce Co-IP kit, 1 mg protein, 5 ug antibody, overnight 4 °C); immune complexes to Coomassie staining and mass spectrometry

Substance: alpha-Enolase (ENO1), endogenous (from UniProt P06733 1-434)
- binding: binds
